# According to the supplement of paper PMC8728848:
# This is one part of the list.
# B1: SLLPI (Homo sapiens), Q8IXA5 (protein)
# chain: MVSALRGAPLIRVHSSPVSSPSVSGPRRLVSCLSSQSSALSQSGGGSTSAAGIEARSRALRRRWCPAGIMLLALVCLLSCLLPSSEAKLYGRCELARVLHDFGLDGYRGYSLADWVCLAYFTSGFNAAALDYEADGSTNNGIFQINSRRWCSNLTPNVPNVCRMYCSDLLNPNLKDTVICAMKITQEPQGLGYWEAWRHHCQGKDLTEWVDGCDF
# How the values were obtained:
# Test in all cases: glycan array binding signal (z-score within array); higher = stronger binding
# Conditions in all cases: glycan notation: IUPAC condensed, linker removed
# Fuc(a1-2)Gal = biological target: Fuc(a1-2)Gal
# Procedure, shortened: (§1)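 Glycan array data came from 3228 arrays in the Consortium for Functional Glycomics database, and only arrays with an available protein sequence were kept. Glycan names were put into IUPAC-condensed notation, and columns mapping to the same glycan were averaged. The binding signal is a within-array Z-score, averaged across arrays of one protein sequence run at different concentrations or buffers and across linkers. A negative Z-score can be read as non-binding.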
# Fuc(a1-2)Gal(b1-3)GalNAc = biological target: Fuc(a1-2)Gal(b1-3)GalNAc
# Procedure, shortened: as §1
# [1] = biological target: Fuc(a1-2)Gal(b1-3)GalNAc(b1-3)Gal
# Procedure, shortened: as §1
# [2] = biological target: Fuc(a1-2)Gal(b1-3)GalNAc(b1-3)Gal(a1-4)Gal(b1-4)Glc
# Procedure, shortened: as §1
# [3] = biological target: Fuc(a1-2)Gal(b1-3)GalNAc(b1-4)[Neu5Ac(a2-3)]Gal(b1-4)Glc
# Procedure, shortened: as §1
# Fuc(a1-2)Gal(b1-3)GlcNAc = biological target: Fuc(a1-2)Gal(b1-3)GlcNAc
# Procedure, shortened: as §1
# [4] = biological target: Fuc(a1-2)Gal(b1-3)GlcNAc(b1-3)Gal(b1-4)Glc
# Procedure, shortened: as §1
# [5] = biological target: Fuc(a1-2)Gal(b1-3)[Fuc(a1-4)]GlcNAc
# Procedure, shortened: as §1
# Fuc(a1-2)Gal(b1-4)Glc = biological target: Fuc(a1-2)Gal(b1-4)Glc
# Procedure, shortened: as §1
# Fuc(a1-2)Gal(b1-4)Glc6S = biological target: Fuc(a1-2)Gal(b1-4)Glc6S
# Procedure, shortened: as §1
# Fuc(a1-2)Gal(b1-4)GlcNAc = biological target: Fuc(a1-2)Gal(b1-4)GlcNAc
# Procedure, shortened: as §1
# [6] = biological target: Fuc(a1-2)Gal(b1-4)GlcNAc(b1-2)Man(a1-3)[Fuc(a1-2)Gal(b1-4)GlcNAc(b1-2)Man(a1-6)]Man(b1-4)GlcNAc(b1-4)GlcNAc
# Procedure, shortened: as §1
# [7] = biological target: Fuc(a1-2)Gal(b1-4)GlcNAc(b1-2)Man(a1-6)[Gal(b1-4)GlcNAc(b1-2)Man(a1-3)]Man(b1-4)GlcNAc(b1-4)GlcNAc
# Procedure, shortened: as §1
# [8] = biological target: Fuc(a1-2)Gal(b1-4)GlcNAc(b1-3)Gal(b1-4)GlcNAc
# Procedure, shortened: as §1
# [9] = biological target: Fuc(a1-2)Gal(b1-4)GlcNAc(b1-3)Gal(b1-4)GlcNAc(b1-3)Gal(b1-4)GlcNAc
# Procedure, shortened: as §1
# [10] = biological target: Fuc(a1-2)Gal(b1-4)GlcNAc6S
# Procedure, shortened: as §1
# [11] = biological target: Fuc(a1-2)Gal(b1-4)[Fuc(a1-3)]GlcNAc
# Procedure, shortened: as §1
# [12] = biological target: Fuc(a1-2)Gal(b1-4)[Fuc(a1-3)]GlcNAc(b1-3)Gal(b1-4)[Fuc(a1-3)]GlcNAc
# Procedure, shortened: as §1
# [13] = biological target: Fuc(a1-2)Gal(b1-4)[Fuc(a1-3)]GlcNAc(b1-3)Gal(b1-4)[Fuc(a1-3)]GlcNAc(b1-3)Gal(b1-4)[Fuc(a1-3)]GlcNAc
# Procedure, shortened: as §1
# Fuc(a1-2)Gal6S(b1-4)Glc = biological target: Fuc(a1-2)Gal6S(b1-4)Glc
# Procedure, shortened: as §1
# [14] = biological target: Fuc(a1-2)Gal6S(b1-4)Glc6S
# Procedure, shortened: as §1
# [15] = biological target: Fuc(a1-2)Gal6S(b1-4)GlcNAc
# Procedure, shortened: as §1
# Fuc(a1-2)[Gal(a1-3)]Gal = biological target: Fuc(a1-2)[Gal(a1-3)]Gal
# Procedure, shortened: as §1
# [16] = biological target: Fuc(a1-2)[Gal(a1-3)]Gal(b1-3)GlcNAc
# Procedure, shortened: as §1
# [17] = biological target: Fuc(a1-2)[Gal(a1-3)]Gal(b1-4)Glc
# Procedure, shortened: as §1
# [18] = biological target: Fuc(a1-2)[Gal(a1-3)]Gal(b1-4)GlcNAc
# Procedure, shortened: as §1
# [19] = biological target: Fuc(a1-2)[Gal(a1-3)]Gal(b1-4)[Fuc(a1-3)]GlcNAc
# Procedure, shortened: as §1
# [20] = biological target: Fuc(a1-2)[Gal(a1-4)]Gal(b1-4)GlcNAc
# Procedure, shortened: as §1
# [21] = biological target: Fuc(a1-2)[GalNAc(a1-3)]Gal
# Procedure, shortened: as §1
# [22] = biological target: Fuc(a1-2)[GalNAc(a1-3)]Gal(b1-3)GlcNAc
# Procedure, shortened: as §1
# [23] = biological target: Fuc(a1-2)[GalNAc(a1-3)]Gal(b1-4)Glc
# Procedure, shortened: as §1
# [24] = biological target: Fuc(a1-2)[GalNAc(a1-3)]Gal(b1-4)GlcNAc
# Procedure, shortened: as §1
# [25] = biological target: Fuc(a1-2)[GalNAc(a1-3)]Gal(b1-4)[Fuc(a1-3)]GlcNAc
# Procedure, shortened: as §1
# [26] = biological target: Fuc(a1-2)[GalNAc(a1-4)]Gal(b1-4)GlcNAc
# Procedure, shortened: as §1
# [27] = biological target: Fuc(a1-2)[GalNAc(b1-3)]Gal
# Procedure, shortened: as §1
# Fuc(a1-3)GlcNAc = biological target: Fuc(a1-3)GlcNAc
# Procedure, shortened: as §1
# [28] = biological target: Fuc(a1-3)[Gal(b1-4)]Glc6S
# Procedure, shortened: as §1
binder,measurement,setting,value
B1,glycan array binding signal (z-score),Fuc(a1-2)Gal,-0.333
same,glycan array binding signal (z-score),Fuc(a1-2)Gal(b1-3)GalNAc,-0.368
same,glycan array binding signal (z-score),[1],1.93
same,glycan array binding signal (z-score),[2],-0.283
same,glycan array binding signal (z-score),[3],-0.194
same,glycan array binding signal (z-score),Fuc(a1-2)Gal(b1-3)GlcNAc,-0.188
same,glycan array binding signal (z-score),[4],-0.272
same,glycan array binding signal (z-score),[5],0.478
same,glycan array binding signal (z-score),Fuc(a1-2)Gal(b1-4)Glc,0.145
same,glycan array binding signal (z-score),Fuc(a1-2)Gal(b1-4)Glc6S,-0.173
same,glycan array binding signal (z-score),Fuc(a1-2)Gal(b1-4)GlcNAc,-0.326
same,glycan array binding signal (z-score),[6],-0.63
same,glycan array binding signal (z-score),[7],-0.49
same,glycan array binding signal (z-score),[8],0.263
same,glycan array binding signal (z-score),[9],0.386
same,glycan array binding signal (z-score),[10],-0.264
same,glycan array binding signal (z-score),[11],-0.396
same,glycan array binding signal (z-score),[12],-0.373
same,glycan array binding signal (z-score),[13],-0.258
same,glycan array binding signal (z-score),Fuc(a1-2)Gal6S(b1-4)Glc,-0.133
same,glycan array binding signal (z-score),[14],0.738
same,glycan array binding signal (z-score),[15],0.21
same,glycan array binding signal (z-score),Fuc(a1-2)[Gal(a1-3)]Gal,0.276
same,glycan array binding signal (z-score),[16],0.113
same,glycan array binding signal (z-score),[17],-0.49
same,glycan array binding signal (z-score),[18],-0.244
same,glycan array binding signal (z-score),[19],0.447
same,glycan array binding signal (z-score),[20],-0.38
same,glycan array binding signal (z-score),[21],0.008
same,glycan array binding signal (z-score),[22],-0.048
same,glycan array binding signal (z-score),[23],-0.385
same,glycan array binding signal (z-score),[24],-0.22
same,glycan array binding signal (z-score),[25],0.139
same,glycan array binding signal (z-score),[26],-0.013
same,glycan array binding signal (z-score),[27],-0.12
same,glycan array binding signal (z-score),Fuc(a1-3)GlcNAc,-0.25
same,glycan array binding signal (z-score),[28],-0.301

# Random excerpt: two entries already listed
binder,measurement,setting,value
B1,glycan array binding signal (z-score),[6],-0.63
same,glycan array binding signal (z-score),[16],0.113
